No constants are given. Whether binding was seen depends on the method and setting. Some entries that bind do so weakly or less than the wild type.

Amino acid sequences for entries named in this document (tags omitted).
UniProt Q14289: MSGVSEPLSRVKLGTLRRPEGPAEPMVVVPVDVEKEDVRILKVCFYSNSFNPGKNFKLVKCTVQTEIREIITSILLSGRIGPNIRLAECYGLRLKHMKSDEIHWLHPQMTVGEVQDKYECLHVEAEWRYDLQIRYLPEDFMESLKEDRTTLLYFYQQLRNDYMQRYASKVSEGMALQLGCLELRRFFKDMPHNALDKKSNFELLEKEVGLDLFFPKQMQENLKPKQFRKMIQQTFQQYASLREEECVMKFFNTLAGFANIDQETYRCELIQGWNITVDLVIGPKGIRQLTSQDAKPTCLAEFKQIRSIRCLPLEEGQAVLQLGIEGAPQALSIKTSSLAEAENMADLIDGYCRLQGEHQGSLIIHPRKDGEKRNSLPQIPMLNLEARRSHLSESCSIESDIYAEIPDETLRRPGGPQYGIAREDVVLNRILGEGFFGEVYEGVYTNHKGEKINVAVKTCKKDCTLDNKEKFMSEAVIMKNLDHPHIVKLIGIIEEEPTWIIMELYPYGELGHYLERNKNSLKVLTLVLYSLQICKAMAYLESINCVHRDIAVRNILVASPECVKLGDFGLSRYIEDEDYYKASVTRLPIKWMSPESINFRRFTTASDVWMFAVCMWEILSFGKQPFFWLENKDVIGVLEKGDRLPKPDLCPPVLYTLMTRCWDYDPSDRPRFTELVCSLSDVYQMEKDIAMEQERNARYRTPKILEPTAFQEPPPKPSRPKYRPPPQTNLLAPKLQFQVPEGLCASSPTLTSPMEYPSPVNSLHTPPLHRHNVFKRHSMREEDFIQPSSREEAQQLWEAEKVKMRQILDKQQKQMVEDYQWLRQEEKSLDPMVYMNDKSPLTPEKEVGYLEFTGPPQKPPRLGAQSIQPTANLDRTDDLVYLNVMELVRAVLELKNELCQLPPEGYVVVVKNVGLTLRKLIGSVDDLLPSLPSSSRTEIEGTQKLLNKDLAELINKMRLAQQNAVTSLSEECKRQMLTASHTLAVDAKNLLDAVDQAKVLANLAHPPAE
UniProt O14508: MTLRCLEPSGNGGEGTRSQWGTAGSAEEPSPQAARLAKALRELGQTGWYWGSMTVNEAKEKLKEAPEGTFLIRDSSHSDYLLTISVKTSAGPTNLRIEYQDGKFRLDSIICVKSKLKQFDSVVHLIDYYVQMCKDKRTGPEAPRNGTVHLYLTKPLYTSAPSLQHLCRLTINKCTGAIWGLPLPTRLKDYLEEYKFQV

The target of experiment [1] is Pyk2 expressed endogenously in NK-92 cells (human) (UniProt Q14289). Briefly: endogenous immunoprecipitation with anti-SOCS2 from NK-92 lysate, Western blot with anti-Pyk2. On the technique in general: In western blotting, separated proteins are transferred to a membrane and probed.
For experiment [2], the target named is Pyk2 protein (yeast two-hybrid screening) (UniProt Q14289). Briefly: yeast two-hybrid screening.

With “SOCS2 expressed endogenously in NK-92 cells (from UniProt O14508 1-198)”, the binding entry in experiment [1] was “binds”.
For the substance “SOCS2 protein (yeast two-hybrid screening) (from UniProt O14508 1-198)”, the binding result in experiment [2] is reported as “binds”.

The values are drawn from patent US20120282646A1, “METHOD FOR ACTIVATING A NATURAL KILLER CELL BY ADJUSTING THE EXPRESSION OF THE SOCS2 GENE” (Korea Research Institute of Bioscience and Biotechnology, priority 2009, published 2012).
